Laboratory results published in article PMC5105168.
No constants are given. Whether binding was seen depends on the method and setting. In cells and extracts the contact can be indirect. A yes stands for co-enrichment or nearness to the bait. Other partners may have been found. For part of these data: A no says only that the protein was not detected with the bait.

Sequences of proteins named here, by UniProt entry; tags and fusion partners are left off. A change or cut given only in a name is not applied to a line headed by its entry. A line that says so, or that is headed by a name, gives the form on record, which may keep a tag or linker. Residues count along the entry.
UniProt O43823: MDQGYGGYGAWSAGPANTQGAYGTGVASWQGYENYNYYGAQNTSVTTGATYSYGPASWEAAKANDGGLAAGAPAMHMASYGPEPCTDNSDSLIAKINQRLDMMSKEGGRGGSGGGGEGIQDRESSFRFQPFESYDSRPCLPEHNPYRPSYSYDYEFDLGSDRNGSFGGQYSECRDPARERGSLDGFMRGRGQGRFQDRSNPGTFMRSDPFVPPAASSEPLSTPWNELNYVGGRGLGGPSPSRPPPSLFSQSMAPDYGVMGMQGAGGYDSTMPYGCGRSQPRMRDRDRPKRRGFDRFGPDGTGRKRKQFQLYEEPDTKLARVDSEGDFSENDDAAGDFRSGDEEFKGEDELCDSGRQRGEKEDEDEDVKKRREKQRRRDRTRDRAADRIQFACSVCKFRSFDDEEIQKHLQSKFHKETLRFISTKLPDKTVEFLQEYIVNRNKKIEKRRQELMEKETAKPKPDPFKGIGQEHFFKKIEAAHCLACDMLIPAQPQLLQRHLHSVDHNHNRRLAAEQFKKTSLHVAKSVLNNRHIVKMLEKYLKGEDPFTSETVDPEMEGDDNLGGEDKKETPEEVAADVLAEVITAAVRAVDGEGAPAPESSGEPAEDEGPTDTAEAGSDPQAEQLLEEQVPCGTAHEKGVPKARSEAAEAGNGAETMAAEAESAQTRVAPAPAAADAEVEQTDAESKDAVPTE
FLAG-HA-tagged AKAP95 (101–692): residues 101-692 of O43823
UniProt Q92841: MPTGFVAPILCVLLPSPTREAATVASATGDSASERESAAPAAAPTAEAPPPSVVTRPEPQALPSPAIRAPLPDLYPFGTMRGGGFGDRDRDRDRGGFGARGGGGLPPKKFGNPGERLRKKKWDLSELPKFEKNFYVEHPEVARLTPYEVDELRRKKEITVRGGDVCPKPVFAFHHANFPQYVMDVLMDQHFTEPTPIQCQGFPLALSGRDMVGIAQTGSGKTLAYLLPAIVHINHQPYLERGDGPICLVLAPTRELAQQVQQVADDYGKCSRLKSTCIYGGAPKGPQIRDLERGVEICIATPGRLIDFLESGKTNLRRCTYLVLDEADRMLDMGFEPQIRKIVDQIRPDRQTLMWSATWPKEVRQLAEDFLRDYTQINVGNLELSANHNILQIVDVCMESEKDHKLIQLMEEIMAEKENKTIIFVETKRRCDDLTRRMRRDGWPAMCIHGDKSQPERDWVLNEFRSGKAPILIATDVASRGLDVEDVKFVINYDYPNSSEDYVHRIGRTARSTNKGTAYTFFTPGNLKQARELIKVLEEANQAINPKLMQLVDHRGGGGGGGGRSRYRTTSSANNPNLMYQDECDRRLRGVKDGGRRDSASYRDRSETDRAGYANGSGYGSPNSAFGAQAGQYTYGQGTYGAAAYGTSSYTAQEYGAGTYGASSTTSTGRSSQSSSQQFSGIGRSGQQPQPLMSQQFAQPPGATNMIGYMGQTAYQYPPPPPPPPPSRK
UniProt Q6NZY4: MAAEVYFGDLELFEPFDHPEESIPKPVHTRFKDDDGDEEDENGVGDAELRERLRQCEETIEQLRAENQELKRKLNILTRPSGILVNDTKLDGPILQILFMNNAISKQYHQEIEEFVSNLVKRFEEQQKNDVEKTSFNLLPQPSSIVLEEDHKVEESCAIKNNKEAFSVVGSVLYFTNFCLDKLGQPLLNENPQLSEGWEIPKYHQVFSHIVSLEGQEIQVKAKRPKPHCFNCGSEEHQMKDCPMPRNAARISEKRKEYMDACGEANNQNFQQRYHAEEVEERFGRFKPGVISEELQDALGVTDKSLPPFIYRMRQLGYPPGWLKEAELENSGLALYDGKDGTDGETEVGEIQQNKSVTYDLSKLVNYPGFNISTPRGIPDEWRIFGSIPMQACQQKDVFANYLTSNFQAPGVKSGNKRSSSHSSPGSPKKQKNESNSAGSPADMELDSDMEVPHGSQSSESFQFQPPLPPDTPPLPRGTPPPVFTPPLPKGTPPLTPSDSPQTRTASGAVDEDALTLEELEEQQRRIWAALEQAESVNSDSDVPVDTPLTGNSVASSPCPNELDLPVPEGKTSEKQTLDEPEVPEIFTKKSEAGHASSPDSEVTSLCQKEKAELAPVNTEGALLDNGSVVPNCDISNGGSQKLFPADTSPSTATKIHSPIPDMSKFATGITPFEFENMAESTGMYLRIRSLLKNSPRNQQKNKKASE
UniProt Q01844: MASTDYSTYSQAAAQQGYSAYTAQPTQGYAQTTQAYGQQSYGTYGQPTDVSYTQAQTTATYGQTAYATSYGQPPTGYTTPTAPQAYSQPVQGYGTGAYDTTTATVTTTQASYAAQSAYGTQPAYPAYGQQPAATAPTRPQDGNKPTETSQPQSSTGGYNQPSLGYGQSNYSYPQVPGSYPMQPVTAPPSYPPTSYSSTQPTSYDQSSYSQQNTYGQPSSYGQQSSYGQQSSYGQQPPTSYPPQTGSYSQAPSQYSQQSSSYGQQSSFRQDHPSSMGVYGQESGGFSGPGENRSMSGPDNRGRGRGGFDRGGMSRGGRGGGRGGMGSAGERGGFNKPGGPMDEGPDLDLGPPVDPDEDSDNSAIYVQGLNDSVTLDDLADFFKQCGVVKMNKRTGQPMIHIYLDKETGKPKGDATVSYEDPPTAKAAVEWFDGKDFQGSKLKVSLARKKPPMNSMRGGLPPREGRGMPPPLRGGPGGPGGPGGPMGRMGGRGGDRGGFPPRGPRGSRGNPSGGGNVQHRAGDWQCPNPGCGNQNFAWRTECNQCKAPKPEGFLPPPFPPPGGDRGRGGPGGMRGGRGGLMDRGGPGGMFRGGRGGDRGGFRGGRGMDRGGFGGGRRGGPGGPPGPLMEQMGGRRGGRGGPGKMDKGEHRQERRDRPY
UniProt Q8IZL8: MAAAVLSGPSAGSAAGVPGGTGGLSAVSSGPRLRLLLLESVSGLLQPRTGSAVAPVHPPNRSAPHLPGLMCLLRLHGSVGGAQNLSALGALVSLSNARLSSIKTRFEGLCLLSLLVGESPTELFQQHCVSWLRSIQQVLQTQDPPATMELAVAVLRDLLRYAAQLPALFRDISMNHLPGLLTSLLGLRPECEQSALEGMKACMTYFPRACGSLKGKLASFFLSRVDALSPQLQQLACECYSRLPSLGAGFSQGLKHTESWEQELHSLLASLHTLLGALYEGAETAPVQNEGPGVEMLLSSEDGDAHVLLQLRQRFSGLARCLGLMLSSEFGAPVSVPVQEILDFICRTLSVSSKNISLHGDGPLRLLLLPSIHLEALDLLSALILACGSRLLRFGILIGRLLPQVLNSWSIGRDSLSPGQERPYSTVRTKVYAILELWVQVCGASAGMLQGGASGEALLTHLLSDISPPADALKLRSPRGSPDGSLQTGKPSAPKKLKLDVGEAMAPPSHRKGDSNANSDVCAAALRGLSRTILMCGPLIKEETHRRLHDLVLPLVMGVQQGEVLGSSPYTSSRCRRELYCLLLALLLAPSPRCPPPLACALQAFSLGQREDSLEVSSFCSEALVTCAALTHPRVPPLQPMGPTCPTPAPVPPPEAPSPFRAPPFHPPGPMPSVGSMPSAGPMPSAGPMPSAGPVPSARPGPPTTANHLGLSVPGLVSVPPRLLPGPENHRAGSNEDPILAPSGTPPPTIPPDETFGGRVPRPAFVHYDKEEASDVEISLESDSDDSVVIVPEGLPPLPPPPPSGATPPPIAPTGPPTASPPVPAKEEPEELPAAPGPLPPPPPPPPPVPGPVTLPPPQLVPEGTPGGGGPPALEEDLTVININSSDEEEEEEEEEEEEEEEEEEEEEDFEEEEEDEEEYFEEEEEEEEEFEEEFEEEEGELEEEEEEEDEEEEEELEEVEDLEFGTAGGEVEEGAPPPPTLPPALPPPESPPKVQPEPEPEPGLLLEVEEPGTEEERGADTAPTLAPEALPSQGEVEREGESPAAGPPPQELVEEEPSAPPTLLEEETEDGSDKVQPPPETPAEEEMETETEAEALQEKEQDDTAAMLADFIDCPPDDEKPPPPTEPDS
UniProt P17844: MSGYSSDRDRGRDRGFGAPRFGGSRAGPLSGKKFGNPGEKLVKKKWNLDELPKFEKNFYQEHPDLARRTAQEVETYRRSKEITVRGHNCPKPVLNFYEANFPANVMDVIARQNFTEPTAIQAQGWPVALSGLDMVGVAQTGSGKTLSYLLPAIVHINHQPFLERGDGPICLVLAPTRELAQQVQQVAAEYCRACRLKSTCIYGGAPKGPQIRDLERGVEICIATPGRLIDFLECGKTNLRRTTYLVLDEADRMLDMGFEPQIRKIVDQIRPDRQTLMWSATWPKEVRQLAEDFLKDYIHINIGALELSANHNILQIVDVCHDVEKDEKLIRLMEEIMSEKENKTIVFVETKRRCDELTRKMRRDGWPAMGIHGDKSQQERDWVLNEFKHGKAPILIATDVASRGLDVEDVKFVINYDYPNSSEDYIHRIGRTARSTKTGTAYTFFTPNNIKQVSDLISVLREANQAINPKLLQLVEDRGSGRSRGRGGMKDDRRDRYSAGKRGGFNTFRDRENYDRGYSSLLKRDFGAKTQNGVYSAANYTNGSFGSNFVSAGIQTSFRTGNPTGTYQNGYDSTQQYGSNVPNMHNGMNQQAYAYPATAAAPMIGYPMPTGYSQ
UniProt P31943: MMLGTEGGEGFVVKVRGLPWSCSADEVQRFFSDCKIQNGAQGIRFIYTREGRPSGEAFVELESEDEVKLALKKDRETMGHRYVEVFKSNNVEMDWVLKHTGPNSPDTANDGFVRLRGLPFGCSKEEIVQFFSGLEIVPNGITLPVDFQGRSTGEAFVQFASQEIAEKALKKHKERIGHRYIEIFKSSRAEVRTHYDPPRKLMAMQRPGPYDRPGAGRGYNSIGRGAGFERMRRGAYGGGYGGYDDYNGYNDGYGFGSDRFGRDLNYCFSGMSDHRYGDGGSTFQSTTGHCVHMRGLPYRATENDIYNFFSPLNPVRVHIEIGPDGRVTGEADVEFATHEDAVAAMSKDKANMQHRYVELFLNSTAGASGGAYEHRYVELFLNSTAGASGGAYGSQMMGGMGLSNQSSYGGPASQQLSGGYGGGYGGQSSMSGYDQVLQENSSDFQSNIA

Legend:
[1] = target: FLAG-HA-tagged full-length human AKAP95 (human) (UniProt O43823); assay: affinity purification with mass spectrometry; nuclear extracts of Flp-In-293 stable lines on anti-FLAG M2 agarose, BC300 with 0.1% NP40, 4 °C, 6 h; FLAG peptide elution, SDS-PAGE, MALDI mass spectrometry; proteins found with control cells excluded
[2] = target: FLAG-HA-tagged AKAP95 (101–692) (human) (UniProt O43823); assay: as above

Row | binding [1] | binding [2] | Substance
1 | binds | no binding | DDX17 (endogenous) (from UniProt Q92841 1-729)
2 | binds | – | ZCCHC8 (endogenous) (from UniProt Q6NZY4 1-707)
3 | binds | no binding | EWS (endogenous) (from UniProt Q01844 1-656)
4 | binds | no binding | PELP1 (endogenous) (from UniProt Q8IZL8 1-1130)
5 | binds | no binding | hnRNP K (endogenous) (from UniProt P61978 1-463)
6 | binds | no binding | DDX5 (endogenous) (from UniProt P17844 1-614)
7 | binds | – | hnRNP H1 (endogenous) (from UniProt P31943 1-449)
